Measurements: PMC7229820

Biological target: T1, Flag-tagged NONO (UniProt Q99K48)
T1 sequence: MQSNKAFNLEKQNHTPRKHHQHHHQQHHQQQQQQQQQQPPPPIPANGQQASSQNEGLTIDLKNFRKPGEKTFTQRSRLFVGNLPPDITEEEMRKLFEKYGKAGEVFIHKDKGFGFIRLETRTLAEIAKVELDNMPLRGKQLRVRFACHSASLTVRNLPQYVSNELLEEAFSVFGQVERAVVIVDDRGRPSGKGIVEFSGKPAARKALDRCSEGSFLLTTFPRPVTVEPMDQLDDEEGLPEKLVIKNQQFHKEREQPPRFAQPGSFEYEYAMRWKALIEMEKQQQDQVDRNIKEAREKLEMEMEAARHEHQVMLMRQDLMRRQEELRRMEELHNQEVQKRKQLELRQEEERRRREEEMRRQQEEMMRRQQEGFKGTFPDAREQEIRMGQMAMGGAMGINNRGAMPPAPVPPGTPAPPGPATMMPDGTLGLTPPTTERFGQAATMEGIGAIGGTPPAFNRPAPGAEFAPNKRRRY
Test: pull-down; 5 ug Flag-NONO incubated with 5 ug GST or 5 ug GST-TET1CD in 200 ul of 50 mM Tris-HCl pH 8.0, 150 mM NaCl, 0.1% Triton X-100 for 3 h at 4 C; Flag beads for 1 h at 4 C; Western blot and Coomassie staining; both purified

For “GST-tagged TET1 catalytic domain (CD) (domain or fragment)”, which binding is on record?
The binding was “binds”.

These are yes or no findings as the source states them, for the method shown. A result given as binding can be weak or reduced; the word gives no strength. Tags and fused reporters may be left off the sequences shown.
